Measured values from paper PMC11448500.
No constants are given. Whether binding was seen depends on the method and setting. In cells and extracts the contact can be indirect. Some results given as binding are weak or reduced against the parent protein; the word gives no strength.

Protein sequences, listed by entry. Tags and fused reporters are not part of them.
UniProt Q61501: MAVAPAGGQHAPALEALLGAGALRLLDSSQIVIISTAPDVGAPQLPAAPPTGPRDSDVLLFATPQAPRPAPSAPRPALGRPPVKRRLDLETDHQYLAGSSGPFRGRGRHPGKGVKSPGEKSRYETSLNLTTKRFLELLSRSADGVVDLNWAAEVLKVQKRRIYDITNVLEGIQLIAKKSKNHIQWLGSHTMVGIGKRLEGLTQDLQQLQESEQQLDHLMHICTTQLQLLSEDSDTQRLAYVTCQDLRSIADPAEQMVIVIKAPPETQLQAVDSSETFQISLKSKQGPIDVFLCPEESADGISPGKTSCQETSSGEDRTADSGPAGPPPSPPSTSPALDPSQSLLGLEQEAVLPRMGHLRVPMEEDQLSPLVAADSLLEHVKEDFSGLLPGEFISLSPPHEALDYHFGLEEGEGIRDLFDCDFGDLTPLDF

Target: T1, KDM2A (mouse (endogenous in c-KIT+ spermatogonia of mouse testes)) (UniProt P59997)
T1 sequence: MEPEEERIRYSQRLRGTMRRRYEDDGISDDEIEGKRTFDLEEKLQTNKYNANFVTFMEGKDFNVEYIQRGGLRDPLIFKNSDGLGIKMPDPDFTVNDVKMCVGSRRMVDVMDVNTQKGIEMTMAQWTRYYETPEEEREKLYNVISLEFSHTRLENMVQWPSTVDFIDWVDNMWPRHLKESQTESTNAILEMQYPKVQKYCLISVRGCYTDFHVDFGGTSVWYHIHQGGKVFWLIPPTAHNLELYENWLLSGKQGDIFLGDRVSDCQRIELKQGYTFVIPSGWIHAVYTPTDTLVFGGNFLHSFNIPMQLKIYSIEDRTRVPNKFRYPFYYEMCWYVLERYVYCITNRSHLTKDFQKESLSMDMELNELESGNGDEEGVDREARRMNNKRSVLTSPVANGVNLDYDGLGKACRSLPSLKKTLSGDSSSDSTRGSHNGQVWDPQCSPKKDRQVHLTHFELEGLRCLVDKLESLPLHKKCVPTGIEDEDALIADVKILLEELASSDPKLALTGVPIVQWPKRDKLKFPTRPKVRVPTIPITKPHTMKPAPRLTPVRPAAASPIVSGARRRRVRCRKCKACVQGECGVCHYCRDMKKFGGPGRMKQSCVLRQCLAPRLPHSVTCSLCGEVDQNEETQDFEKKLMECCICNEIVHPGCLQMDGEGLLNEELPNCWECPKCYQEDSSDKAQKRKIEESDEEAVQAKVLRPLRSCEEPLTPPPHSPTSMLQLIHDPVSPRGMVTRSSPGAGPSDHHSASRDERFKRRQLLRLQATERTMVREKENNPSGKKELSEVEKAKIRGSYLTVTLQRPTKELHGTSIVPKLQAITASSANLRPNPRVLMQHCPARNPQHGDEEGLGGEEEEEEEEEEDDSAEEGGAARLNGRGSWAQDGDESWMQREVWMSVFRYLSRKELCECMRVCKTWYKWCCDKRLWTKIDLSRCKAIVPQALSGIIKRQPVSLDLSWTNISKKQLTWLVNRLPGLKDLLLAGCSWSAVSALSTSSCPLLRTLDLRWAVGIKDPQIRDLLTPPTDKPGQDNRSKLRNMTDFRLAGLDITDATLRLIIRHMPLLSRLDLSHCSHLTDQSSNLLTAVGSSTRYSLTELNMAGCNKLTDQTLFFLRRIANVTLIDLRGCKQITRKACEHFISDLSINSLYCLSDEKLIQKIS
Assay: co-IP; lysate of purified c-KIT+ spermatogonia, relevant antibodies and protein A/G magnetic beads overnight at 4 °C, with or without Super Nuclease, six washes, western blot; IgG as negative control

E2F1 (from UniProt Q61501 1-430)
binding: binds
